Assay results taken from patent US20110236393A1, “MONOCLONAL ANTIBODY PRODUCTION IN B CELLS AND USES THEROF” (Duke University, priority 2008, published 2011).
Some results were stated once for a whole list of compounds, not compound by compound.

Tested on: CD19+ B cells of CFSE-stained PBMC
Experiment: CFSE/CD19 B cell proliferation after EBV infection of PBMC
Format: cell-based, human
Conditions: washout and time of addition, proliferation read at day 14
Excerpt: FIGS. 4A, 4B and 4C show inhibition of ATM or Chk2 increased the proliferation of B cells following EBV infection. FIG. 4A is a dot plot of EBV-mediated proliferation following infection of CFSE-stained PBMC, detected by FACS using CD19-PE staining of B cells and CFSE to monitor cell divisions, at 2 and 6 days post infection. At day 2 post infection there was little proliferation, while by day 6 there was clear B cell proliferation induced by the virus. FIG. 4B is a histogram illustrating the effect of CFSE-stained PBMC infected with EBV in the presence of increasing amounts of ATMi or Chk2i (0.1% DMSO, 1 μM, 2 μM, 5 μM, and 10 μM). The percentage of CD19+/CFSElo cells of total PBMCs at 14 days post infection are plotted. […] Six days post treatment/infection cells were stained with CD19-PE antibody and proliferation of B cells was assessed. […]
To further characterize the ATM- and Chk2-dependent block to EBV-mediated transformation, B cell proliferation early after infection was analyzed. […] CFSE staining assays proliferation as its fluorescence is halved in daughter cells. […] Thus, each two-fold reduction of CFSE fluorescence readout by flow cytometry correlates with one cycle of proliferation. CFSE-labeled PBMC were infected with EBV and B cell proliferation was monitored by CD19-PE or APC labeling cells at different days after infection. […]

| Compound | period after infection in which EBV-infected B cells are sensitive to the inhibitor |
| --- | --- |
| CC(=O)c1ccc2c(c1)C=C(c1ccc(Oc3ccc(Cl)cc3)cc1)C2 [Chk2i II] | 4 to 8 days |
| O=c1cc(-c2cccc3c2Sc2ccccc2S3)oc(N2CCOCC2)c1 [ATMi] | 4 to 8 days |
